Test results taken from PMC3082224.
Results are given in words; binding and its absence hold for the method and conditions named. Binding seen in cells or lysates may run through a third protein. Some binding calls cover weakened binding; strength is not graded here.

The chains behind the UniProt entries cited, without tags or fusion partners. Where a name states a change or a piece, a line headed by the entry shows the natural chain unless it says otherwise.
UniProt P40763: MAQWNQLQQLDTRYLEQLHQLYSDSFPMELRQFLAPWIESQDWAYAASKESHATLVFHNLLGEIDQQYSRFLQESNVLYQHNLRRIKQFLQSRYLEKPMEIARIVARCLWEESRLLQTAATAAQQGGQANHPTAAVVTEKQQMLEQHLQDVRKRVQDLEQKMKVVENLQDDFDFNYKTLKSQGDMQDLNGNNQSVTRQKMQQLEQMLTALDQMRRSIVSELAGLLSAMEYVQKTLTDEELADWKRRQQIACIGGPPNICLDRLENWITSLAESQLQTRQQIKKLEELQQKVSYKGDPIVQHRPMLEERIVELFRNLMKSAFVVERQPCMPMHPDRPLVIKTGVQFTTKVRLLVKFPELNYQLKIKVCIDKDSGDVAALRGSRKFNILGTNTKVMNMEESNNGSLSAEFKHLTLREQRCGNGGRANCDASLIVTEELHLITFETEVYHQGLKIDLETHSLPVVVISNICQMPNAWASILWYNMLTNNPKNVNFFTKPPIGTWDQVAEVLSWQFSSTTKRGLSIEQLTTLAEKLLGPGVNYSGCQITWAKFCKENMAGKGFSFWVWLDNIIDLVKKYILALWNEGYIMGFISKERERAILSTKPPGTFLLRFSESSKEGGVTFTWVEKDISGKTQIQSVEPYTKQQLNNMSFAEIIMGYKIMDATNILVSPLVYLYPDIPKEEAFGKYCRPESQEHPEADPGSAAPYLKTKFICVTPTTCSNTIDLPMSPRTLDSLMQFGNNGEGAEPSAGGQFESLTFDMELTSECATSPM
UniProt P19838: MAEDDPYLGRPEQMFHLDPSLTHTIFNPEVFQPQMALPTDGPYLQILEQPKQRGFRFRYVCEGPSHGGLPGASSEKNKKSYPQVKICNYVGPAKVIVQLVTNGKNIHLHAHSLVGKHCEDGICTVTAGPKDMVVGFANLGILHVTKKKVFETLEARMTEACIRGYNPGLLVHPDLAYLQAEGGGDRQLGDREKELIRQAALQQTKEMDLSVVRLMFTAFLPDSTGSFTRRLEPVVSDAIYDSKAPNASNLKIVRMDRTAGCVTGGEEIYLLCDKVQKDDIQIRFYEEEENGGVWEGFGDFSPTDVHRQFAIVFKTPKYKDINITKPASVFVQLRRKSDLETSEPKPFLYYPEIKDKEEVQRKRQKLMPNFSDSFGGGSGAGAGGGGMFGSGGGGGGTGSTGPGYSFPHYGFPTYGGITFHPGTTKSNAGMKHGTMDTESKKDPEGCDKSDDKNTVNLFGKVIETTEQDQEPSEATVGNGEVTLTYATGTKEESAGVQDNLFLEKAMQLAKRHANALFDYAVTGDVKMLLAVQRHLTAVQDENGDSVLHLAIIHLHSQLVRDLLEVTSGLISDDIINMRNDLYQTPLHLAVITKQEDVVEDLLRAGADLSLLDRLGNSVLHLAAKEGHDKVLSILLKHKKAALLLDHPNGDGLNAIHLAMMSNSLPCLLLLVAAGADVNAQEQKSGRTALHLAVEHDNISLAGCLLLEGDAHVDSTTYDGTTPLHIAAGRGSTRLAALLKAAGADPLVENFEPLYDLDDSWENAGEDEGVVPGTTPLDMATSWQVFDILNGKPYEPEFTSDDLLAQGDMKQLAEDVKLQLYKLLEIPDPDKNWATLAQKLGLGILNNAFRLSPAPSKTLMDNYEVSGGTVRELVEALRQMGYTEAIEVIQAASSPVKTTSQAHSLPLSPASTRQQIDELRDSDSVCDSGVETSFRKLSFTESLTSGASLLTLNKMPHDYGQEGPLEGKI

Biological target: activated STAT3 (phospho-STAT3) trapped on the biotinylated STAT3-decoy ODN (human (endogenous in SW 480)) (UniProt P40763)
Assay: pull-down; biotinylated STAT3-decoy ODN with cytoplasmic and nuclear fractions of untreated or IL-6-treated (50 ng/ml) SW 480 cells, avidin-Sepharose beads; western blot with NF-κB antibody

Q: Which binding does the source give for “NF-κB (from UniProt P19838 1-433; Q04206 1-551) (complex)” here?
A: binds
